From US6800674B2, “Anthraquinone compound and water-based ink-jet recording ink containing the compound” (Mitsui Chemicals, Inc., priority 2000, dated 2004) come the findings set out here.

The nature of the data set: Evaluation of an image (blotting on plain paper). The conditions noted are these: aqueous ink. Also noted: key: ⊚: Blotting is not observed.; ◯: Blotting is observed without any influence on an image.; X: Blotting is notably observed.
Setting [1] is: ink production process Example 1.
Setting [2] is: ink production process Example 2.

On to `CCCCC(CC)C(=O)Nc1cccc(Oc2cc(O)c3c(c2N)C(=O)c2ccccc2C3=O)c1` (stereo not shown) [compound 34], for which, under setting [1], the “B (Evaluation of an image, blotting)” value is “⊚”.
With `CN(C)c1cccc(Oc2cc(O)c3c(c2N)C(=O)c2ccccc2C3=O)c1` [compound 5], the “B (Evaluation of an image, blotting)” value reads like this: under setting [1], “⊚”; under setting [2], “⊚”.
`Nc1c(Oc2ccccc2NC(=O)c2ccccc2)cc(O)c2c1C(=O)c1ccccc1C2=O` [compound 35]: the “B (Evaluation of an image, blotting)” value under setting [1] is “⊚”.
With `CCCCC(CC)COC(=O)CSc1ccc(Oc2cc(O)c3c(c2N)C(=O)c2ccccc2C3=O)cc1` (stereo not shown) [compound 40], the “B (Evaluation of an image, blotting)” value under setting [1] is on record as “◯”.
Still for that read-out and setting: the entry for `CCCCC(CC)COC(=O)CCSc1cc(O)c2c(c1N)C(=O)c1ccccc1C2=O` (stereo not shown) [compound 29] is “◯”.
With `CCN(CC)c1cccc(Oc2cc(O)c3c(c2N)C(=O)c2ccc(OC)cc2C3=O)c1` [compound 16], the “B (Evaluation of an image, blotting)” value under setting [1] is recorded as “⊚” and the “B (Evaluation of an image, blotting)” value under setting [2] is reported as “⊚”.
For the compound `CCNc1cccc(Oc2cc(O)c3c(c2N)C(=O)c2ccccc2C3=O)c1` [compound 6], the “B (Evaluation of an image, blotting)” value is listed as “⊚” under setting [1] and “⊚” under setting [2].
On to `CCCCC(CC)C(=O)Oc1ccc(Oc2cc(O)c3c(c2N)C(=O)c2ccccc2C3=O)cc1` (stereo not shown) [compound 39], for which, under setting [1], the “B (Evaluation of an image, blotting)” value is “◯”.
Regarding `CCCCCCCCCc1ccc(Oc2cc(O)c3c(c2N)C(=O)c2ccccc2C3=O)cc1` [compound 38], under setting [1], the “B (Evaluation of an image, blotting)” value was “◯”.
Regarding `Cc1cccc(Oc2cc(O)c3c(c2N)C(=O)c2ccccc2C3=O)c1` [compound 24], under setting [1], the “B (Evaluation of an image, blotting)” value is reported as “◯”.
As to `CCCCC(CC)COC(=O)CSc1ccccc1Oc1cc(O)c2c(c1N)C(=O)c1ccccc1C2=O` (stereo not shown) [compound 28], the “B (Evaluation of an image, blotting)” value under setting [1] is “◯”.
For the compound `Nc1c(Oc2ccccc2)cc(O)c2c1C(=O)c1ccccc1C2=O` [compound 23], the “B (Evaluation of an image, blotting)” value under setting [1] is recorded as “◯”.
For `Nc1ccccc1Sc1cc(O)c2c(c1N)C(=O)c1ccccc1C2=O` [compound 22], under setting [1], the “B (Evaluation of an image, blotting)” value is recorded as “◯”.
For the compound `CCCCC(CC)C(=O)Nc1ccccc1Oc1cc(O)c2c(c1N)C(=O)c1ccccc1C2=O` (stereo not shown) [compound 33], the “B (Evaluation of an image, blotting)” value under setting [1] is “⊚”.
For `CCCCCCN(CCCCCC)c1cccc(Oc2cc(O)c3c(c2N)C(=O)c2cccc(C)c2C3=O)c1` [compound 18], the “B (Evaluation of an image, blotting)” value is “⊚” under setting [1] and “⊚” under setting [2].
As for `Nc1c(Oc2ccc(C(c3ccccc3)c3ccccc3)cc2)cc(O)c2c1C(=O)c1ccccc1C2=O` [compound 12], the “B (Evaluation of an image, blotting)” value is, setting by setting: under setting [1], “⊚”; under setting [2], “⊚”.
As to `CCc1ccc2c(c1)C(=O)c1c(O)cc(Oc3cccc(N(CC)CC)c3)c(N)c1C2=O` [compound 15], the “B (Evaluation of an image, blotting)” value by setting is: under setting [1], “⊚”; under setting [2], “⊚”.
As for `CCCC(C)N(c1cccc(Oc2cc(O)c3c(c2N)C(=O)c2ccccc2C3=O)c1)C(C)CCC` (stereo not shown) [compound 11], the “B (Evaluation of an image, blotting)” value under setting [1] is “⊚” and the “B (Evaluation of an image, blotting)” value under setting [2] is “⊚”.
For the compound `CCCCCCCCSc1cc(O)c2c(c1N)C(=O)c1ccccc1C2=O` [compound 21], the “B (Evaluation of an image, blotting)” value under setting [1] was “◯”.
In the case of `CCCCN(CCCC)c1cccc(CCOc2cc(O)c3c(c2N)C(=O)c2ccccc2C3=O)c1` [compound 36], the “B (Evaluation of an image, blotting)” value under setting [1] is recorded as “⊚”.
Regarding `CCCCCCN(CCCCCC)c1cccc(Oc2cc(O)c3c(c2N)C(=O)c2ccccc2C3=O)c1` [compound 10], the “B (Evaluation of an image, blotting)” value by setting is: under setting [1], “⊚”; under setting [2], “⊚”.
In the case of `CCCCC(CC)COC(=O)CSc1cc(O)c2c(c1N)C(=O)c1ccccc1C2=O` (stereo not shown) [compound 30], under setting [1], the “B (Evaluation of an image, blotting)” value is listed as “◯”.
For `CCCCCCCCCCCCCCCCCCOC(=O)CSc1cc(O)c2c(c1N)C(=O)c1ccccc1C2=O` [compound 27], the “B (Evaluation of an image, blotting)” value under setting [1] is recorded as “◯”.
For `CCCN(CCC)c1cccc(Oc2cc(O)c3c(c2N)C(=O)c2ccccc2C3=O)c1` [compound 8], the “B (Evaluation of an image, blotting)” value is, setting by setting: under setting [1], “⊚”; under setting [2], “⊚”.
Regarding `Nc1c(SCCOCCSc2cc(O)c3c(c2N)C(=O)c2ccccc2C3=O)cc(O)c2c1C(=O)c1ccccc1C2=O` [compound 31], the “B (Evaluation of an image, blotting)” value under setting [1] was “◯”.
With `O=C1c2ccccc2C(=O)c2c1ccc(O)c2O` [Comparative Example 1, reference compound], under setting [1], the “B (Evaluation of an image, blotting)” value is given as “X”.
On to `CCN(CC)c1cccc(Oc2cc(O)c3c(c2N)C(=O)c2ccccc2C3=O)c1` [compound 7], for which the “B (Evaluation of an image, blotting)” value under setting [1] is “⊚” and the “B (Evaluation of an image, blotting)” value under setting [2] is listed as “⊚”.
As for `Nc1ccccc1Oc1cc(O)c2c(c1N)C(=O)c1ccccc1C2=O` [compound 4], the “B (Evaluation of an image, blotting)” value under setting [1] was “⊚” and the “B (Evaluation of an image, blotting)” value under setting [2] was “⊚”.
As for `CCCCOC(=O)CSc1cc(O)c2c(c1N)C(=O)c1ccccc1C2=O` [compound 32], the “B (Evaluation of an image, blotting)” value under setting [1] was “◯”.
Regarding `CCN(CC)c1cccc(Oc2cc(O)c3c(c2N)C(=O)c2cc(C)ccc2C3=O)c1` [compound 13], the “B (Evaluation of an image, blotting)” value reads like this: under setting [1], “⊚”; under setting [2], “⊚”.
Turning to `CCCCN(CCCC)c1cccc(Oc2cc(O)c3c(c2N)C(=O)c2ccccc2C3=O)c1` [compound 9], the “B (Evaluation of an image, blotting)” value is “⊚” under setting [1] and “⊚” under setting [2].
On to `Cc1ccc(CCCOc2cc(O)c3c(c2N)C(=O)c2ccccc2C3=O)cc1` [compound 25], for which, under setting [1], the “B (Evaluation of an image, blotting)” value is given as “◯”.
For the compound `CCCCC(CC)COC(=O)CSc1cccc(Oc2cc(O)c3c(c2N)C(=O)c2ccccc2C3=O)c1` (stereo not shown) [compound 26], the “B (Evaluation of an image, blotting)” value under setting [1] is listed as “◯”.
As for `CCCCN(CCCC)c1cccc(Oc2cc(O)c3c(c2N)C(=O)c2ccc(CC)cc2C3=O)c1` [compound 14], the “B (Evaluation of an image, blotting)” value runs as follows: under setting [1], “⊚”; under setting [2], “⊚”.
For the compound `CCCCCCCCN(CCCCCCCC)c1cccc(Oc2cc(O)c3c(c2N)C(=O)c2ccccc2C3=O)c1` [Coloring matter No. 1], the “B (Evaluation of an image, blotting)” value under setting [1] is listed as “⊚”.
In the case of `CCCCC(CC)CC(=O)Nc1ccc(O)cc1Sc1cc(O)c2c(c1N)C(=O)c1ccccc1C2=O` (stereo not shown) [compound 19], the “B (Evaluation of an image, blotting)” value under setting [1] is “◯”.
As to `Nc1c(Oc2cccc(C(F)(F)F)c2)cc(O)c2c1C(=O)c1ccccc1C2=O` [compound 37], the “B (Evaluation of an image, blotting)” value under setting [1] is on record as “◯”.
For `CCCCCCCCOC(=O)CSc1cc(O)c2c(c1N)C(=O)c1ccccc1C2=O` [compound 20], the “B (Evaluation of an image, blotting)” value under setting [1] is reported as “◯”.
